# In the supplement of paper PMC12067093, “Discovery and optimisation of a covalent ligand for TRIM25 and its application to targeted protein ubiquitination” (Chemical Science, 2025):
# The chains behind the UniProt entries cited, without tags or fusion partners. Where a name states a change or a piece, a line headed by the entry shows the natural chain unless it says otherwise.
# UniProt Q96BS2: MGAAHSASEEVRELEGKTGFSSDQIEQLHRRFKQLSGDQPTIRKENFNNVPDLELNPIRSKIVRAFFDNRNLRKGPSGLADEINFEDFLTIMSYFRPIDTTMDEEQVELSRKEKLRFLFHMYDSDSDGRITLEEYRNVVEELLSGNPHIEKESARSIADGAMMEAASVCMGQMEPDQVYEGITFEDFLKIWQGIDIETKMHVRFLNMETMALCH
# UniProt Q6YHU6: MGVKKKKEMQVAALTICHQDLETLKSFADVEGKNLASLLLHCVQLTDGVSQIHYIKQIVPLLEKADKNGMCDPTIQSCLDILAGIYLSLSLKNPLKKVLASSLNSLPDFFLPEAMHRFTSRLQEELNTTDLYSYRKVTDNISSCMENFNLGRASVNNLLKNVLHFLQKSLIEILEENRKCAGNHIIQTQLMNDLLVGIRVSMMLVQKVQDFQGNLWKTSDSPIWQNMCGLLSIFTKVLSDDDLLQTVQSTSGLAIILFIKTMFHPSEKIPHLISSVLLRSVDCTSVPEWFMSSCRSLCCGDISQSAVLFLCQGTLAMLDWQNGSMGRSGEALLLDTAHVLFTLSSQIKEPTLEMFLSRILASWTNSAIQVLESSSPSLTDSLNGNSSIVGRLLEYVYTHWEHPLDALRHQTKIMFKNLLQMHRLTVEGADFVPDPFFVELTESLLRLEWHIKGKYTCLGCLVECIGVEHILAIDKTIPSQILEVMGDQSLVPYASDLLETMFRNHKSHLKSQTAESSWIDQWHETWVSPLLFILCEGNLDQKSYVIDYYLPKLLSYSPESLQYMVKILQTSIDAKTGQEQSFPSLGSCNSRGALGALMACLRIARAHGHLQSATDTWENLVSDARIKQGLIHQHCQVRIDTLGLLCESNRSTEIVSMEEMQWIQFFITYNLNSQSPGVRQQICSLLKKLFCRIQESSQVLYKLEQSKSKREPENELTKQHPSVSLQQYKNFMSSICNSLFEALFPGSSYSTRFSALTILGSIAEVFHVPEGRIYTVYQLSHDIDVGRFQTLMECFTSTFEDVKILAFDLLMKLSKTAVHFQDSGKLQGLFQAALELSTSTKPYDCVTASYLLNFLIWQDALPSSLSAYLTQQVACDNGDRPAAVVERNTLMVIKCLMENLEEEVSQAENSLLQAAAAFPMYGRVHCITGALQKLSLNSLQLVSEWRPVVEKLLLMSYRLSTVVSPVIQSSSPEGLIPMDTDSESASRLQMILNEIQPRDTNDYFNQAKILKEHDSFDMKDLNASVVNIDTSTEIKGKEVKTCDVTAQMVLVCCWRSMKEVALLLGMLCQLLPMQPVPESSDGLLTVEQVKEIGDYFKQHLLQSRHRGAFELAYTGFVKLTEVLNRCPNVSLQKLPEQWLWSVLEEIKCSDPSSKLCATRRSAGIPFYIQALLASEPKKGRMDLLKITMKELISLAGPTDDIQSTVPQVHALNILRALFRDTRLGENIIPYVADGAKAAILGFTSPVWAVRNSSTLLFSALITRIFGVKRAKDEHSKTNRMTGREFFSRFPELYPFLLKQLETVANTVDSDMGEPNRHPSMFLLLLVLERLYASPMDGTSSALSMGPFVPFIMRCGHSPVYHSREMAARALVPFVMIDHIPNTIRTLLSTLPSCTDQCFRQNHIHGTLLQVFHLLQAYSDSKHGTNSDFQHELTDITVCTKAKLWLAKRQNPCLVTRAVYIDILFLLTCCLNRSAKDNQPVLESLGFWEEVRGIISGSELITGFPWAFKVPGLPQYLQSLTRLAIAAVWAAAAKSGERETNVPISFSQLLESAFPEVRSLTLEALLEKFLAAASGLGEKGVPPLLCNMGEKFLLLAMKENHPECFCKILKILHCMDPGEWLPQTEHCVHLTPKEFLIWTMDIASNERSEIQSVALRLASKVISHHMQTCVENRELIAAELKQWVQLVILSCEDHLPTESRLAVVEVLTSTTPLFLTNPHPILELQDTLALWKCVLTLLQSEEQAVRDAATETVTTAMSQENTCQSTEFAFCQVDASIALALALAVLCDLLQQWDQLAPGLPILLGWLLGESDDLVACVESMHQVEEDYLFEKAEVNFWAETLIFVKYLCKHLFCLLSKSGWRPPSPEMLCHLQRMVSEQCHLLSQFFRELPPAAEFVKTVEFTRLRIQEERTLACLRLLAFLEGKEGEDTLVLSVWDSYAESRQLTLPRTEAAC
# UniProt Q9Y4R8, whole entry, looked up: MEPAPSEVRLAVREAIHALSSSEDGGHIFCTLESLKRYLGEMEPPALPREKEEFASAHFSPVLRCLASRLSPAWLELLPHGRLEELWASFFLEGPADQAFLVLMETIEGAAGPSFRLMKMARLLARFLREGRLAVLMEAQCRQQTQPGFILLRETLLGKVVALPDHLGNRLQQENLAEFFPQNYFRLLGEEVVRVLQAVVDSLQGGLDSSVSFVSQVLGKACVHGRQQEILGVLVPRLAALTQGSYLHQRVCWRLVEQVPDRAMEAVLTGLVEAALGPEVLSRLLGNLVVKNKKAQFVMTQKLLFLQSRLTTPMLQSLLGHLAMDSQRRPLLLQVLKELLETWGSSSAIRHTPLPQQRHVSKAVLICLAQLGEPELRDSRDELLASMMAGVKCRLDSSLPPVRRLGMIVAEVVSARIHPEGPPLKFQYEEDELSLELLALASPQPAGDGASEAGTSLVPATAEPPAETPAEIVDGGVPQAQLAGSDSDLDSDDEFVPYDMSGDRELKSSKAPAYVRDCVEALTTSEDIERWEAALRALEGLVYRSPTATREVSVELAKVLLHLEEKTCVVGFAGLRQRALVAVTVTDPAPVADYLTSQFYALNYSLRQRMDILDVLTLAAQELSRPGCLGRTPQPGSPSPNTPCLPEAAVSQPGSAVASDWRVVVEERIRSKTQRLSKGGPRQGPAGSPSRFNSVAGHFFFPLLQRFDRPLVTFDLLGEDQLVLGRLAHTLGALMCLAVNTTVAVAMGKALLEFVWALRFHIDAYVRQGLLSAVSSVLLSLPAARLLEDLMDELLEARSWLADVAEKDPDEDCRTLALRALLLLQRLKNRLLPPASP
# UniProt Q9Y6I9: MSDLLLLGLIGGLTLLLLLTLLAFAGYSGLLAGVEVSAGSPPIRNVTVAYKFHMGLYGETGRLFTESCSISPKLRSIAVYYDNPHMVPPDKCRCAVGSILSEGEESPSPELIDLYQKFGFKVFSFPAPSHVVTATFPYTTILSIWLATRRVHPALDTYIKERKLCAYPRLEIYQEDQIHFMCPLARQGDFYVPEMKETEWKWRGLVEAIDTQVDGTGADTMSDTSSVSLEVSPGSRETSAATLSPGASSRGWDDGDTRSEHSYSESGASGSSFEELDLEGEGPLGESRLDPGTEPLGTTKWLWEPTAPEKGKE
# UniProt P29401: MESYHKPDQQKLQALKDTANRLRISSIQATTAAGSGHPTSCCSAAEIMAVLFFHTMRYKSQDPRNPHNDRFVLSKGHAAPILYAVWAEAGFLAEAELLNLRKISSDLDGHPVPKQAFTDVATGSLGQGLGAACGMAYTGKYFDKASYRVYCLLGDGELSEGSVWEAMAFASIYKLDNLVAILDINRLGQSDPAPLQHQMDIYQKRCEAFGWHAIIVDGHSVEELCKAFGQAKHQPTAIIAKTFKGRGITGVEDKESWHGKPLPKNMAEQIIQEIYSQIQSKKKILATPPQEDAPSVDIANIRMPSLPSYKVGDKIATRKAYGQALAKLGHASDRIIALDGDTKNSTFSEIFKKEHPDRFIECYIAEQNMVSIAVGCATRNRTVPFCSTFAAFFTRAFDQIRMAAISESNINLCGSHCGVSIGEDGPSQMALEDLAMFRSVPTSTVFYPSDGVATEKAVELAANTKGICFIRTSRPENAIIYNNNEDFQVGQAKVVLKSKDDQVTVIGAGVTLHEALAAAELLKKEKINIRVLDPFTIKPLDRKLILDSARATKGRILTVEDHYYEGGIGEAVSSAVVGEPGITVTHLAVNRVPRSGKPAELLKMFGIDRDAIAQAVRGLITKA
# UniProt Q86W42: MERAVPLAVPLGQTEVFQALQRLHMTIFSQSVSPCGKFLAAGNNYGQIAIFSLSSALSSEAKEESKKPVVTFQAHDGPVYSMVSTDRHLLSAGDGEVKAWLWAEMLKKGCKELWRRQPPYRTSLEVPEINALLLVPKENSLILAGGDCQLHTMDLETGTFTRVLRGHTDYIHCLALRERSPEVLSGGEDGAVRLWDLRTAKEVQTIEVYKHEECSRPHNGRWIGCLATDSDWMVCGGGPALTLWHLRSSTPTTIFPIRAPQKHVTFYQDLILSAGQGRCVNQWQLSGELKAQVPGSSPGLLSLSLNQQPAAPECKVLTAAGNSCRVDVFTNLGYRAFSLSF
# UniProt Q96N21: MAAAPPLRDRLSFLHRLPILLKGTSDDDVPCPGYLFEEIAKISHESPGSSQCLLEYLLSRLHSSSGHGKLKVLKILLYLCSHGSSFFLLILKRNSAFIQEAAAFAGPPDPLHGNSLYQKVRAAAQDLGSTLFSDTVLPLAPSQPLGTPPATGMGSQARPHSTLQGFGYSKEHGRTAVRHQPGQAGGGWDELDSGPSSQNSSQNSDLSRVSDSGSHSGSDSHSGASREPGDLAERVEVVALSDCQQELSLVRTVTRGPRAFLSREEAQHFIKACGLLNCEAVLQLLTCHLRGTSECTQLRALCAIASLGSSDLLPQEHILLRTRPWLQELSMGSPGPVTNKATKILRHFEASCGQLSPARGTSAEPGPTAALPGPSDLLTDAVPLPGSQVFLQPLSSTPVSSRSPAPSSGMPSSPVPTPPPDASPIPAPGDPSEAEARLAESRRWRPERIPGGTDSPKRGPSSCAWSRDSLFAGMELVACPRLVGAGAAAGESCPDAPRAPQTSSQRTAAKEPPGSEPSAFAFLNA
# UniProt Q9P016: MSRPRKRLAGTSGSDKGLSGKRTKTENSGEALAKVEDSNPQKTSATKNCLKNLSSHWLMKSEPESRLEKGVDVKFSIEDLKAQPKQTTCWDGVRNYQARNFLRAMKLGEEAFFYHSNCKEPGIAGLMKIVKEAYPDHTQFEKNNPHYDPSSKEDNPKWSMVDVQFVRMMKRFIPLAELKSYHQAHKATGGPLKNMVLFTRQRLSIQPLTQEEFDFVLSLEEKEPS
# UniProt Q9UNS1: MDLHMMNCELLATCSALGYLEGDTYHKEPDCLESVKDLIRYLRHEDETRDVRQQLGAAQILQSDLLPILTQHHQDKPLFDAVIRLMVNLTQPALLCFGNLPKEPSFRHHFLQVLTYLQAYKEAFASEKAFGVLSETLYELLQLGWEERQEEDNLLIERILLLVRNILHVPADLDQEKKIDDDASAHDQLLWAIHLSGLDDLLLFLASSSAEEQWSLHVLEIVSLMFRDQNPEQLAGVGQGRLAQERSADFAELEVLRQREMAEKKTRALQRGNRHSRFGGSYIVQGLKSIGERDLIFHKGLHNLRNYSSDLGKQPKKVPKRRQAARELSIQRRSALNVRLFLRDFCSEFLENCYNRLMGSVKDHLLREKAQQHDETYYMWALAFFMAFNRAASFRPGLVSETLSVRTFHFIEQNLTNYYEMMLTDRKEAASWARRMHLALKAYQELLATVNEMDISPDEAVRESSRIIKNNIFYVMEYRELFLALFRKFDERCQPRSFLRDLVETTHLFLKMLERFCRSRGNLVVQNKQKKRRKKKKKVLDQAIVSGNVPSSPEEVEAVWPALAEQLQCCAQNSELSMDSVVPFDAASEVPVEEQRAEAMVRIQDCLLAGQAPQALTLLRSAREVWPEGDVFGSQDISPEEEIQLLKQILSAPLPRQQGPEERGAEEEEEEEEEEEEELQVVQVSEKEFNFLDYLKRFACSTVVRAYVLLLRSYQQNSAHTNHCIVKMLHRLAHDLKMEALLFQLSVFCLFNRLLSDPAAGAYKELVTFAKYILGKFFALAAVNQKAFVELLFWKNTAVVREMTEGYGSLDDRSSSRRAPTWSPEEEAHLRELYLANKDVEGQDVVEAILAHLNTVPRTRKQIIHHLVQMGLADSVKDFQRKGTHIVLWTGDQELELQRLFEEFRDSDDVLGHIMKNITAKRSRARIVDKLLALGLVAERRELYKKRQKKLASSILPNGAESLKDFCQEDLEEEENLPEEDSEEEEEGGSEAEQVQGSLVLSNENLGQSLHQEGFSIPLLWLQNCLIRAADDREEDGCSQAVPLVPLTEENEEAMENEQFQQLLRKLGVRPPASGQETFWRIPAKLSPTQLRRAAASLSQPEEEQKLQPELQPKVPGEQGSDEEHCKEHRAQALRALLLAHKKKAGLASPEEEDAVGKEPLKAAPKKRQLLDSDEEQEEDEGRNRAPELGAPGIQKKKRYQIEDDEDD
# The list shows a part of the results.
# Compound: CC1Cc2ccccc2N1C(=O)C1CCCN(C1)C(=O)CCl (mixture of isomers) [TRIM25 ligand 11 (diastereomer mixture)]
# Test: probe-labelled cysteine peptide fold change vs DMSO (competition) (log2 fold change); higher = less target engagement (more negative = stronger competition)
# Conditions: THP-1, incubation time: 4 h
# 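Further: competitive chemoproteomic profiling in live THP-1 cells with an iodoacetamide desthiobiotin (IA-DTB) probe, comparing probe-labelled peptide intensities in compound-treated cells against DMSO-treated controls.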
Target,probe-labelled cysteine peptide fold change (10 µM),probe-labelled cysteine peptide fold change (50 µM)
TESC_Q96BS2_213_FLNMETMALCH (UniProt Q96BS2),0.107,0.0887
THAP12_O43422_230_FETTAVNTLFCSK (UniProt O43422),0.0202,0.187
THADA_Q6YHU6_180_CAGNHIIQTQLMNDLLVGIR (UniProt Q6YHU6),-0.353,0.0817
TELO2_Q9Y4R8_222_ACVHGR (UniProt Q9Y4R8),-0.0174,0.0343
TEX264_Q9Y6I9_165_KLCAYPR (UniProt Q9Y6I9),-0.137,0.0043
TEP1_Q99973_171_GLDLSTCPIALK (UniProt Q99973),0.0301,0.12
TKT_P29401_362_EHPDRFIECYIAEQNMVSIAVGCATR (UniProt P29401),0.0018,0.0657
THOC6_Q86W42_214_EVQTIEVYKHEECSRPHNGR (UniProt Q86W42),-0.167,-0.146
TEPSIN_Q96N21_295_GTSECTQLR (UniProt Q96N21),0.0525,0.179
THYN1_Q9P016_118_LGEEAFFYHSNCK (UniProt Q9P016),-0.123,-0.085
TIMELESS_Q9UNS1_606_IQDCLLAGQAPQALTLLR (UniProt Q9UNS1),0.329,-0.0231
TKT_P29401_206+225_RCEAFGWHAIIVDGHSVEELCK (UniProt P29401),-0.0929,-0.0796

# Shown with bars between the fields: entries from further up.
Target | probe-labelled cysteine peptide fold change (10 µM) | probe-labelled cysteine peptide fold change (50 µM)
THYN1_Q9P016_118_LGEEAFFYHSNCK (UniProt Q9P016) | -0.123 | -0.085
TIMELESS_Q9UNS1_606_IQDCLLAGQAPQALTLLR (UniProt Q9UNS1) | 0.329 | -0.0231
